The values that follow come from PMC5490268.

By UniProt entry, the sequences of proteins in these tests, tags left out.
UniProt P97926: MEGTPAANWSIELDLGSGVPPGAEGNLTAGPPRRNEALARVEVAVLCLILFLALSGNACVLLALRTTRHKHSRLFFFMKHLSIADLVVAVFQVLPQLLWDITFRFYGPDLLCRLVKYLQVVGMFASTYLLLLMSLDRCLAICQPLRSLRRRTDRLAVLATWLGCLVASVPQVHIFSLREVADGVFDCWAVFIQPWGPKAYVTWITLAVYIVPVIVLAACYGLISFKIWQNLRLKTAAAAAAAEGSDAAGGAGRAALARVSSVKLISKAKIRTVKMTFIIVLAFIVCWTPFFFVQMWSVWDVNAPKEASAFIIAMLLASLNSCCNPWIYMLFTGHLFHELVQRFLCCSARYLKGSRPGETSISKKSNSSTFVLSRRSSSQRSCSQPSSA

No constants are given. Whether binding was seen depends on the method and setting. In cells and extracts the contact can be indirect. Sequences can lack the tags named with a protein.

The target of this assay is Myc-tagged oxytocin receptor (OTR) (UniProt P97926). The experiment in a line: co-IP; HEK293T cells transfected with pcDNA3 HA-A1R and Myc-OTR plasmids; lysates incubated with 2 ug non-immune IgG, anti-HA or anti-Myc antibody, protein A/G-agarose; western blot with anti-Myc or anti-HA. (In general: A western blot detects proteins with antibodies after separation by electrophoresis.)

B1: HA-tagged mouse adenosine receptor A1R (receptor, UniProt Q60612 1-326)
chain: MPPYISAFQAAYIGIEVLIALVSVPGNVLVIWAVKVNQALRDATFCFIVSLAVADVAVGALVIPLAILINIGPQTYFHTCLMVACPVLILTQSSILALLAIAVDRYLRVKIPLRYKTVVTQRRAAVAIAGCWILSLVVGLTPMFGWNNLSEVEQAWIANGSVGEPVIKCEFEKVISMEYMVYFNFFVWVLPPLLLMVLIYLEVFYLIRKQLNKKVSASSGDPQKYYGKELKIAKSLALILFLFALSWLPLHILNCITLFCPTCQKPSILIYIAIFLTHGNSAMNPIVYAFRIHKFRVTFLKIWNDHFRCQPKPPIEEDIPEEKADD
On to B1, for which the binding result is “no binding”.
